Laboratory results from PubChem BioAssay AID1259354 (Paczesny and Yang Labs, IUPUI and University of Michigan, 2018).
In all, about 78,000 compounds went through this assay and about 1,800 (2.3%) were called active. The shares of active, inactive and inconclusive entries below differ from those in the screen. Cut-off read from the data, not from the text of the source: active = inhibition above about 30%; inconclusive = mostly about 10% to 28%; inactive = weaker than that.

The chains behind the UniProt entries cited, without tags or fusion partners. Where a name states a change or a piece, a line headed by the entry shows the natural chain unless it says otherwise.
UniProt Q01638: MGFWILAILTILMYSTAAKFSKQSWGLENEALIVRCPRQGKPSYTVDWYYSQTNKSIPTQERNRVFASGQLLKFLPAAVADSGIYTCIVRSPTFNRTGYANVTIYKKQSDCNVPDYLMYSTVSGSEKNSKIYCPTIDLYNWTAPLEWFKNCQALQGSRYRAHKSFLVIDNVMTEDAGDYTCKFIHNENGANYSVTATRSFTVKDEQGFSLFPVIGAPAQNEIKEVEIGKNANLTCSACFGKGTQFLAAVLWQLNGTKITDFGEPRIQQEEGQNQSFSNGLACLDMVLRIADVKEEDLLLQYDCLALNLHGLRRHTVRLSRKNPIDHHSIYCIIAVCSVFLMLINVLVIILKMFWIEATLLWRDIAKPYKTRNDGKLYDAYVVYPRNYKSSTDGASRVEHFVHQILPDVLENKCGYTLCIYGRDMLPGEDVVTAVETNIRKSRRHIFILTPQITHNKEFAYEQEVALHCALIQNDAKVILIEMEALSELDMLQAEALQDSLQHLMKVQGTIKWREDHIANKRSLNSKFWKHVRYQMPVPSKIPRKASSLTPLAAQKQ

Molecular target: Interleukin-1 receptor-like 1 (Homo sapiens) (UniProt Q01638)
Test: blocks human ST2 binding to IL-33, primary screen, biochemical, AlphaLISA (AID 1259354)
Conditions: AlphaLISA ST2-Fc/biotin-IL-33 interaction, 1 h; at 17 µM, hits give high values

SMILES | inhibition
COc1ccc(OC)c2sc(N3CCOCC3)nc12 | inactive
Clc1ccc(-c2nc3cnccn3c2Nc2ccc3c(c2)OCO3)cc1 | inconclusive: 15%
CC(C)(O)C#Cc1ccc(C(=O)N2CCCC(CO)(Cc3cccc(Cl)c3)C2)cc1 (configuration not stated) | inconclusive: 18%
NC(=O)CSc1nc2c([nH]c3ccccc32)c(=O)n1-c1ccccc1 | inactive
CN(C)S(=O)(=O)N1CCC(Oc2ccc(C(=O)N3CCN(CC4CC4)CC3)cc2)CC1 | inconclusive: 10%
Cc1cccc(-c2c(-c3ccccc3)ncn2CCCN2CCNC(=O)C2)c1 | inconclusive: 12%
O=C(Nc1ccc(N2CCCC2)cc1)c1sc2ccccc2c1Cl | inconclusive: 15%
CCOc1ccc(OCCCOc2cc(C=O)ccc2OC)cc1 | inactive
NC1=NC(=O)/C(=C\c2cccc(C(F)(F)F)c2)S1 | inconclusive: 14%
O=C(Nc1nncs1)c1ccc(Oc2ccccc2)cc1 | inactive
CC(=O)Nc1ccc(NC(=O)c2ccc([N+](=O)[O-])c(C)c2)cc1 | inactive
COc1cc(Cl)c(C)cc1NC(=O)c1coc(=O)c2ccccc12 | inactive
CS(=O)(=O)c1ncc(CN2CCCCC2CO)n1Cc1ccccc1F (configuration not stated) | inconclusive: 12%
Cc1ccc(C(=O)c2c[nH]c3ccc(Br)cc3c2=O)cc1 | active: 33%
O=C(NCc1cccnc1N1CCOCC1)c1ccc(Cl)s1 | inactive
CN(c1ccc(Br)cc1)S(=O)(=O)c1cc2c(cc1Cl)NC(=O)CO2 | inconclusive: 19%
CNC(=O)[C@@H]1C[C@@H](N)CN1Cc1c(F)ccc(C)c1Cl | inconclusive: 18%
Cc1ccc(C2=NN(S(=O)(=O)c3ccccc3)C(c3ccccc3F)C2)cc1 (configuration not stated) | inconclusive: 17%
Cc1noc(C)c1C1CCCN1Cc1ccc(Sc2nncn2C)o1 (configuration not stated) | inconclusive: 15%
COc1cc(/C=C2\C(=O)Nc3ccc(Br)cc32)cc(OC)c1O | inactive
O=C(N/C(=C\c1ccc2c(c1)OCO2)C(=O)N1CCOCC1)c1ccc(Br)cc1 | inactive

SMILES | inhibition
CC1CCc2cc(F)ccc2N1S(=O)(=O)c1cccc2cccnc12 (configuration not stated) | inconclusive: 17%
O=C(c1cccnn1)N1CCc2[nH]nc(-c3ccc(-c4ccccc4)cc3)c2C1 | inactive
O=C(c1onc2ccccc12)N1CC[C@@H](c2ccc3c(c2)OCO3)[C@H](O)C1 | inactive
CCc1ncc(C(=O)NC(C)Cc2ccncc2)cn1 (configuration not stated) | inactive
COc1ccc(C(=O)N(C)c2ccccc2)cc1 | inconclusive: 17%
O=C(Nc1ccc(I)cc1)c1c(O)c2ccccc2[nH]c1=O | inconclusive: 14%
COc1ccc(C2C(C#N)=C(N)Oc3cc(O)ccc32)cc1Br (configuration not stated) | inconclusive: 17%
c1ccc2c(c1)Cc1cc(CN3CCOCC3)ccc1-2 | inconclusive: 12%
COc1ccc(F)c(C(=O)N(C/C=C/c2ccccc2)CCO)c1F | inactive
Cc1cccc(C(=O)Nc2ccc(NC(=O)c3ccc(C)c([N+](=O)[O-])c3)cc2)c1 | active: 32%
CCOc1cc(C2Nc3ccc(C(=O)c4ccccc4)cc3NC3=C2C(=O)CCC3)ccc1O (configuration not stated) | inconclusive: 12%
O=C1NCCN(Cc2cccc(C(F)(F)F)c2)C1CC(=O)N1CCCOCC1 (configuration not stated) | inconclusive: 27%
CCc1nc2nc(C)[nH]n2c(=O)c1NC(=O)Nc1ccc(F)c(Cl)c1 | inconclusive: 11%
Cc1cc(Cl)ccc1OC(C)C(=O)NCc1ccc2c(c1)OCO2 (configuration not stated) | inconclusive: 10%
COC(Cn1ccnc1-c1ccc(S(C)(=O)=O)cc1)c1cccs1 (configuration not stated) | inconclusive: 23%
Cc1cc(C)cc(NCN2C(=O)c3ccccc3C2=O)c1 | inconclusive: 24%
CCc1nnc(CN2CCCC3(C2)C(=O)Nc2ccccc23)o1 (configuration not stated) | inactive
COc1ccc(NC2CCCN(C(=O)c3cccc(-c4ccccc4)c3)C2)cc1 (configuration not stated) | inconclusive: 23%
CCC(=O)N1c2ccc(S(=O)(=O)NCC(=O)NC3CCCC3)cc2CC1C (configuration not stated) | inconclusive: 14%
Oc1cc(Cc2ccccc2)cnc1CN1CCOCC1 | inconclusive: 11%
COc1ccc(/C=C2/SC(N3CCC(C)CC3)=NC2=O)c(OC)c1 | inconclusive: 29%

SMILES | inhibition
Cc1nc2c(C(=O)N3CCC4(CC3)OCCO4)cnn2c(C)c1Cc1ccc(F)cc1 | inactive
Cn1cc(C(=O)NCc2ccc(F)cc2Cl)c2c3ccccc3n(C)c2c1=O | inconclusive: 13%
O=C(Nc1nnc(C2CC2)o1)c1ccc(S(=O)(=O)N2CCCc3ccccc32)cc1 | inconclusive: 12%
Cc1ccccc1OCc1nc(C#N)c(NCCN2CCOCC2)o1 | inconclusive: 15%
Cc1cc(-c2c(-c3ccccc3)ncn2CCO)c(C)n1Cc1cccnc1 | inactive
O=C(Nc1ccc(-c2nc3ccccc3s2)cc1)C(F)(F)F | inactive
CC(=O)N1N=C(c2ccc(F)cc2)Cn2c1nc1c2c(=O)n(C)c(=O)n1C | active: 55%
CCc1ncc(C(=O)NCc2cnn3ccccc23)cn1 | inconclusive: 13%
O=C1C=C(Nc2cccc(Cl)c2)CC(c2ccccc2)C1 (configuration not stated) | inactive
OCC1CCCN1Cc1c(F)cccc1Cl (configuration not stated) | inconclusive: 21%
O=C(CCCn1cnc([N+](=O)[O-])n1)Nc1ccc(Cl)cc1Cl | inconclusive: 11%
CCN(CC)S(=O)(=O)c1ccc(Cl)c(C(=O)Nc2nncs2)c1 | inactive
COCC(=O)N1Cc2c(ncn2Cc2ccc(OC)cc2)C[C@H]1C(=O)OC | active: 68%
CCCCOc1ccc(/C=c2\sc3nc(=O)c(Cc4ccccc4)nn3c2=O)cc1OC | inconclusive: 10%
CC(NC(=O)[C@H](CSCc1ccccc1)N1Cc2ccccc2C1=O)c1cccs1 (some centres not stated) | inactive
C#CCn1cnc2c(cnn2-c2ccccc2)c1=O | inconclusive: 10%
Cc1cc(C)cc(S(=O)(=O)N2CCC3(CCNCC3)C2)c1 | inactive
COc1cccc(CN2CCC[C@@H](O)[C@H](NC(=O)c3ccc(OCc4ccccc4)cc3)C2)c1 | inconclusive: 25%
Cc1cc(NC(=O)C2CCN(S(=O)(=O)c3c(C)n[nH]c3C)CC2)ccc1Br | inactive
Cc1ccc(Cn2c(CNC(=O)c3ccc4c(c3)OCO4)nc3cccnc32)cc1 | inconclusive: 20%

4 entries picked at random from those above, as already listed:
SMILES | inhibition
OCC1CCCN1Cc1c(F)cccc1Cl (configuration not stated) | inconclusive: 21%
Cc1ccc(Cn2c(CNC(=O)c3ccc4c(c3)OCO4)nc3cccnc32)cc1 | inconclusive: 20%
COc1ccc(NC2CCCN(C(=O)c3cccc(-c4ccccc4)c3)C2)cc1 (configuration not stated) | inconclusive: 23%
O=C(c1onc2ccccc12)N1CC[C@@H](c2ccc3c(c2)OCO3)[C@H](O)C1 | inactive
